Article PMC6199744, “Development of Chemical Proteomics for the Folateome and Analysis of the Kinetoplastid Folateome” (ACS Infectious Diseases, 2018)
Further values from the same series stand in other lists.

Test system: L. major lysate proteins
Test: Multitargeted bead mixture chemoproteomics, single concentration competition, proteome-wide
Type: binding

## Nc1nc2c(c(=O)[nH]1)N(C=O)C(CNc1ccc(C(=O)N[C@@H](CCC(=O)O)C(=O)O)cc1)CN2 (stereo partly drawn) [LEU, leucovorin]
Protein LMJF.32.0400 ATP-DEPENDENT RNA HELICASE, PUTATIVE
  fold change vs vehicle control: 1.03
Protein LMJF.32.0520 PROFILIN, PUTATIVE
  fold change vs vehicle control: 0.94
Protein LMJF.32.1000 CHAPERONIN CONTAINING T-COMPLEX PROTEIN, PUTATIVE, vehicle control = 1
  fold change: 0.94
Protein LMJF.32.3010 HYPOTHETICAL PROTEIN, CONSERVED,LEUCINE-RICH REPEAT PROTEIN, PUTATIVE, vehicle control = 1
  fold change: 0.99
Protein LMJF.32.3270 […] SUBUNIT, PUTATIVE, vehicle control = 1
  fold change: 1.03
Protein LMJF.32.3310 DIHYDROLIPOAMIDE DEHYDROGENASE, PUTATIVE, vehicle control = 1
  fold change: 1.1
Protein LMJF.33.2060 HYPOTHETICAL PROTEIN, CONSERVED, vehicle control = 1
  fold change: 0.97
Protein LMJF.33.2300 UDP-GLC 4'-EPIMERASE, PUTATIVE, vehicle control = 1
  fold change: 1.04
Protein LMJF.33.2390 HEAT SHOCK PROTEIN, PUTATIVE, vehicle control = 1
  fold change: 1.11
Protein LMJF.33.2410 HYPOTHETICAL PROTEIN, CONSERVED, vehicle control = 1
  fold change: 0.93
Protein LMJF.34.0840 T[…] 1-BETA, PUTATIVE, vehicle control = 1
  fold change: 1.14
Protein LMJF.34.0930 HYPOTHETICAL PROTEIN, CONSERVED, vehicle control = 1
  fold change: 0.99
Protein LMJF.34.2340 ASPARAGINYL-TRNA SYNTHETASE, PUTATIVE, vehicle control = 1
  fold change: 1.07
Protein LMJF.34.2610 ATP-DEPENDENT DNA HELICASE, PUTATIVE,RUVB DNA HELICASE-LIKE PROTEIN, PUTATIVE, vehicle control = 1
  fold change: 1.08
Protein LMJF.34.2820 REGULATORY SUBUNIT OF PROTEIN KINASE A-LIKE PROTEIN, vehicle control = 1
  fold change: 0.81
Protein LMJF.34.3500 RUVB-LIKE 1 DNA HELICASE, PUTATIVE, vehicle control = 1
  fold change: 0.83
Protein LMJF.34.3670 VACUOLAR ATP SYNTHASE CATALYTIC SUBUNIT A, PUTATIVE, vehicle control = 1
  fold change: 0.94
Protein LMJF.34.4120 HYPOTHETICAL PROTEIN, CONSERVED, vehicle control = 1
  fold change: 0.94
Protein LMJF.35.0030 PYRUVATE KINASE, vehicle control = 1
  fold change: 1.16
Protein LMJF.35.0240 60S RIBOSOMAL PROTEIN L30, vehicle control = 1
  fold change: 1.01
Protein LMJF.35.0760 CBS DOMAIN PROTEIN, CONSERVED, vehicle control = 1
  fold change: 0.96
Protein LMJF.35.0820 ASPARTATE AMINOTRANSFERASE, PUTATIVE, vehicle control = 1
  fold change: 0.92
Protein LMJF.35.1130 OLIGOSACCHARYL TRANSFERASE SUBUNIT, PUTATIVE, vehicle control = 1
  fold change: 0.84
Protein LMJF.35.1410 THREONYL-TRNA SYNTHETASE, PUTATIVE
  fold change vs vehicle control: 0.94
Protein LMJF.35.1720 CYCLOPHILIN 14, PUTATIVE, vehicle control = 1
  fold change: 1.05
Protein LMJF.35.2730 ACYL-COA DEHYDROGENASE, PUTATIVE, vehicle control = 1
  fold change: 0.95
Protein LMJF.35.3080 GLYCEROL KINASE, GLYCOSOMAL, PUTATIVE, vehicle control = 1
  fold change: 1.01
Protein LMJF.35.3100 ATP-DEPENDENT RNA HELICASE, PUTATIVE, vehicle control = 1
  fold change: 1.05
Protein LMJF.35.3230 C[…] LYASE, PUTATIVE, vehicle control = 1
  fold change: 1.11
Protein LMJF.35.3790 60S RIBOSOMAL PROTEIN L23, PUTATIVE, vehicle control = 1
  fold change: 1.02
Protein LMJF.35.4130 POLY(A)-BINDING PROTEIN 2, vehicle control = 1
  fold change: 1.06
Protein LMJF.35.4850 […] 1 SUBUNIT, PUTATIVE, vehicle control = 1
  fold change: 1.03
Protein LMJF.36.0180 […] 2, vehicle control = 1
  fold change: 1.14
Protein LMJF.36.0210 SET DOMAIN PROTEIN, PUTATIVE, vehicle control = 1
  fold change: 1.12
Protein LMJF.36.0740 HYPOTHETICAL PROTEIN, CONSERVED, vehicle control = 1
  fold change: 0.98
Protein LMJF.36.0900 PROTEIN KINASE, PUTATIVE,SNF1-RELATED PROTEIN KINASES, PUTATIVE
  fold change vs vehicle control: 0.81
Protein LMJF.36.1430 TRANSLATION ELONGATION FACTOR 1-BETA, PUTATIVE, vehicle control = 1
  fold change: 0.95
Protein LMJF.36.1940 INOSINE-GUANOSINE TRANSPORTER, vehicle control = 1
  fold change: 1.04
Protein LMJF.36.2020 CHAPERONIN HSP60, MIT[…], vehicle control = 1
  fold change: 1.14
Protein LMJF.36.3530 POLYUBIQUITIN, PUTATIVE
  fold change vs vehicle control: 1.03
Protein LMJF.36.4360 […] SUBUNIT, vehicle control = 1
  fold change: 1.04
Protein LMJF.36.4420 60S RIBOSOMAL PROTEIN L22, PUTATIVE, vehicle control = 1
  fold change: 0.91
Protein LMJF.36.4460 HYPOTHETICAL PROTEIN, CONSERVED, vehicle control = 1
  fold change: 0.99
Protein LMJF.36.5940 HYPOTHETICAL PROTEIN, CONSERVED, vehicle control = 1
  fold change: 0.99
Protein LMJF.36.6910 T-COMPLEX PROTEIN 1, THETA SUBUNIT, PUTATIVE,CHAPERONIN, PUTATIVE, vehicle control = 1
  fold change: 0.98
Protein LMJF.36.6980 EUKARYOTIC TRANSLATION INITIATION FACTOR 3 SUBUNIT 8, PUTATIVE, vehicle control = 1
  fold change: 0.98
Vs vehicle control, protein CLM00008612.1 UNNAMED PROTEIN PRODUCT
  fold change: 0.85
Vs vehicle control, protein LINJ.20.0820 VESICLE-FUSING ATPASE, PUTATIVE,N-ETHYLMALEIMIDE-SENSITIVE FACTOR, PUTATIVE
  fold change: 0.96
Vs vehicle control, protein LINJ.36.1160 RIBOSOMAL PROTEIN L24, PUTATIVE
  fold change: 0.97
Vs vehicle control, protein LMJF.02.0370 PROTEASOME REGULATORY NON-ATPASE SUBUNIT 6, PUTATIVE
  fold change: 0.89
Vs vehicle control, protein LMJF.05.0380 MICROTUBULE-ASSOCIATED PROTEIN, PUTATIVE
  fold change: 0.92
Vs vehicle control, protein LMJF.05.0780 HYPOTHETICAL PROTEIN, CONSERVED
  fold change: 1
Vs vehicle control, protein LMJF.06.0010 HISTONE H4
  fold change: 0.78
Vs vehicle control, protein LMJF.06.0370 GLUTAMINE SYNTHETASE, PUTATIVE
  fold change: 0.96
Vs vehicle control, protein LMJF.07.0460 ACYL-COA DEHYDROGENASE, MITOCHONDRIAL PRECURSOR, PUTATIVE
  fold change: 1.58
Vs vehicle control, protein LMJF.08.1222 HYPOTHETICAL PROTEIN, CONSERVED
  fold change: 0.73
Vs vehicle control, protein LMJF.10.0510 GLYCEROL-3-PHOSPHATE DEH[…] ], GLYCOSOMAL
  fold change: 1.06
Vs vehicle control, protein LMJF.10.0910 SMALL GTP-BINDING PROTEIN RAB11, PUTATIVE
  fold change: 0.95
Vs vehicle control, protein LMJF.11.0130 NGG1 I[…] 3-LIKE PROTEIN
  fold change: 0.99
Vs vehicle control, protein LMJF.11.0480 HY[…], CONSERVED
  fold change: 0.74
Vs vehicle control, protein LMJF.11.1100 LANOSTEROL 14-ALPHA-DEMETHYLASE, PUTATIVE
  fold change: 0.88
Vs vehicle control, protein LMJF.11.1190 40S RIBOSOMAL PROTEIN S15A, PUTATIVE
  fold change: 0.97
Vs vehicle control, protein LMJF.13.1360 HYPOTHETICAL PROTEIN, CONSERVED
  fold change: 0.71
Vs vehicle control, protein LMJF.14.0130 INOSINE-GUANINE NUCLEOSIDE HYDROLASE, PUTATIVE
  fold change: 0.97
Vs vehicle control, protein LMJF.14.1320 SERINE […] (SHMT-S)
  fold change: 1.02
Vs vehicle control, protein LMJF.15.0190 HYPOTHETICAL PROTEIN, CONSERVED
  fold change: 1
